Where “and” joins values, the source holds several entries; their conditions need not be identical. Identical values can stand only once. Out of some 78,000 compounds screened, about 1,800 (2.3%) were called active. The shares of active, inactive and inconclusive entries below differ from those in the screen. No stated cut-off is given here; in the data, active means inhibition above about 30%; inconclusive means mostly about 10% to 28%; inactive means weaker than that.
biological target: Interleukin-1 receptor-like 1 (Homo sapiens) (UniProt Q01638); assay: blocks human ST2 binding to IL-33, primary screen, biochemical, AlphaLISA (AID 1259354); conditions: AlphaLISA ST2-Fc/biotin-IL-33 interaction, 1 h; at 17 µM, stronger effect = higher value

By UniProt entry, the sequences of proteins in these tests, tags left out. Where a name states a change or a piece, a line headed by the entry shows the natural chain unless it says otherwise.
UniProt Q01638: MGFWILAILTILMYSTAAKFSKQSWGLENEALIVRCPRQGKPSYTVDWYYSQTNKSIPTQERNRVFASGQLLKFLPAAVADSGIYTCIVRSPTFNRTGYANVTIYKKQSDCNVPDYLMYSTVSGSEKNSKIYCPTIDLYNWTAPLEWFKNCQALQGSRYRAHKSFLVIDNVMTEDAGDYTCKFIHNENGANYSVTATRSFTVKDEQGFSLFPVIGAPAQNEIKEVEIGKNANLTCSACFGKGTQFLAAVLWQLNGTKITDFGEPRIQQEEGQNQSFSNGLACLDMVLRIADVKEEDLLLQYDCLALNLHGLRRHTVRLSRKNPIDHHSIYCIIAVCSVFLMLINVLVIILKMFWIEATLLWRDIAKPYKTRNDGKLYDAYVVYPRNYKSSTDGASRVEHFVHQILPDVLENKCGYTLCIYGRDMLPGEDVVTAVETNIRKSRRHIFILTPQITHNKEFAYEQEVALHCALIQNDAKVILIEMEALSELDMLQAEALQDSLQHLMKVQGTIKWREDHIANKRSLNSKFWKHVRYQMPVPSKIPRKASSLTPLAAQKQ

| SMILES | inhibition |
| --- | --- |
| COc1ccc(OC)c(C2CC(c3ccc(Br)cc3)=NN2C(=O)CCCC(=O)O)c1 (stereo unspecified) | inconclusive: 14% |
| O=C(c1cn(CCCc2ccccc2)nn1)N1CCN(C2CCCC2)C(=O)C1 | inconclusive: 10% |
| O=C(O)C12C[C@@H]3C[C@@H](CC(O)(C3)C1)C2 | inactive |
| CC(C)Cc1cc(CN2CCC(C(=O)Nc3ccc(Oc4ccccc4F)cc3)CC2)[nH]n1 | inconclusive: 15% |
| Cc1ccc(-c2nnc(-c3nc(NC4CCCCC4)c4ccccc4n3)o2)cc1 | inconclusive: 10% |
| Cc1ccc(S(=O)(=O)C2(C(=O)N3CCN(Cc4ccccc4)CC3)CC2)cc1 | inconclusive: 13% |
| CC(=O)c1ccc(NC(=O)O[C@@H]2CO[C@H]3[C@@H]2OC[C@@H]3NC(=O)c2ccc(C)cc2)cc1 | inconclusive: 17% |
| Cc1cc(N2CCOCC2)nc2ccc(NC(=O)CCC(=O)NCc3ccco3)cc12 | inconclusive: 11% |
| COc1ccc(-c2cn3c(n2)c(=C2CCCN2)c(=O)n3-c2ccccc2)cc1 | inconclusive: 27% |
| Cc1ccccc1CN1CCC(N2CCN(CCO)CC2)CC1 | inactive |
| COc1ccc(CN2CCNC(=O)C2CC(=O)N(C)Cc2cnn(C)c2)c(C)c1C (stereo unspecified) | inactive |
| O=C(NC1CCCN(C2CCCCCC2)C1)c1cn[nH]c1-c1ccccc1F (stereo unspecified) | inconclusive: 10% |
| CCOc1ccccc1CN(CC)C(=O)c1cc(=O)[nH]c2ccc(F)cc12 | inconclusive: 18% |
| CCCCOC(=O)COc1ccc2c(-c3ccccc3)cc(=O)oc2c1C | inconclusive: 28% |
| Cc1ncccc1OC1(C(=O)NCCc2c[nH]c3ccccc23)CCNCC1 | inconclusive: 14% |
| CC(c1cccs1)N(C)C(=O)CCN1CCCCCC1=O (stereo unspecified) | inactive |
| O=C(NCCn1cc(SCc2ccc([N+](=O)[O-])cc2)c2ccccc21)c1ccccc1F | inconclusive: 16% |
| COc1ccc(CN=C(N)N=C(N)N)cc1 | inconclusive: 12% |
| N#Cc1c(N)n(C2CCCC2)c2nc3ccccc3nc12 | inconclusive: 10% |
| COc1ccc(Cl)cc1C(=O)Nc1cc(-c2nc3ncccc3o2)ccc1Cl | inconclusive: 12% |
| Cn1c(C2c3[nH]c4ccccc4c3CCN2Cc2cccs2)nc2ccccc21 (stereo unspecified) | inconclusive: 10% |
| CCSc1ncc(CN2CC[C@@H](N(C)CCc3ccccn3)[C@H](O)C2)cn1 | inactive |
| COCCN1C(=O)CC(CC(=O)N(C)Cc2cn(C)nc2C)(c2ccccc2Cl)C1=O (stereo unspecified) | inactive |
| CCOc1ccc(-c2csc(-c3cc4ccccc4oc3=O)n2)cc1 | inconclusive: 16% |

| SMILES | inhibition |
| --- | --- |
| COc1cc(NS(C)(=O)=O)c(OC)cc1Cl | inactive |
| COc1ccc(NS(=O)(=O)c2ccc(NC(=O)Nc3ccc(Cl)cc3)cc2)cc1 | inactive |
| O=C(Nc1ccc(-c2nc3ncccc3o2)cc1)c1ccc(OCc2ccccc2)cc1 | inconclusive: 19% |
| Cc1ccc(-n2c(SCC(=O)N3CCc4ccccc43)nc3c(c2=O)SCC3)cc1 | active: 97% and inconclusive: 13% |
| Cc1[nH]c2ccccc2c1C(=O)CCC(=O)O | inactive |
| Nc1c(C(=O)NCc2ccco2)sc2nc(-c3ccc(F)cc3)ccc12 | inconclusive: 18% |
| Cc1cc(C)n(-c2nc(N3CCOCC3)nc(C)c2[N+](=O)[O-])n1 | inconclusive: 10% |
| CNS(=O)(=O)c1ccc(-c2nccn2CC2OCCc3ccccc32)cc1 (stereo unspecified) | inconclusive: 25% |
| COc1ccc2oc(=Nc3ccc(C#N)cc3)c(C(=O)NC(C)=O)cc2c1 | inconclusive: 17% |
| COc1c(Sc2ccc([N+](=O)[O-])cc2)c(C)nn1-c1ccccc1 | active: 30% |
| CCC/C=C\CC(N)CC(=O)O (stereo unspecified) | inconclusive: 25% |
| CSc1nnc(CC2CCN(C(=O)c3c(C)cc(=O)oc3C)CC2)n1C | inactive |
| CC(Cn1cccn1)C(=O)N1CCC(c2cc(C(C)C)n[nH]2)CC1 (stereo unspecified) | inactive |
| N#Cc1sc2nc(N3CCOCC3)c3c(c2c1N)CCCC3 | inactive |
| O=c1[nH]c(SCCc2ccccc2)nc2ccccc12 | inactive |
| O=C(O)c1ccc2c(c1)C(=O)/C(=C\c1ccco1)C2=O | active: 71% |
| O=C(c1cc2ccccn2n1)N1CCN(C(c2ccccc2)c2ccccc2)CC1 | inconclusive: 24% |
| CN1C[C@@H](NS(=O)(=O)c2ccccc2)C[C@H]1c1nc(Cc2ccccc2)no1 | inactive |
| c1cncc(-c2nc3c(c(NCCn4cccn4)n2)CCNC3)c1 | inconclusive: 12% |
| CC1CC(C)CN(CCCNC(=O)c2cc(=O)[nH]c3ccc(S(=O)(=O)N4CCCC4)cc23)C1 (stereo unspecified) | inactive |
| COc1ccc(Cl)cc1S(=O)(=O)NCCC12CC3CC(CC(C3)C1)C2 | inactive |
| O=C(c1ccccc1)c1ccc2n1CCC2C(=O)O (stereo unspecified) | inconclusive: 11% |
| CCCOc1ccc(/C=c2\sc3nc(-c4ccncc4)nn3c2=O)cc1 | inconclusive: 10% |
| c1ccc2c(c1)c1ccccc1n2CN1CCCCC1 | inconclusive: 13% |

| SMILES | inhibition |
| --- | --- |
| Cc1ccc(OCC(O)CN2CCN(c3ccccc3F)CC2)c(C)c1 (stereo unspecified) | inconclusive: 10% |
| Cc1cnc(C)c(N2CCN(Cc3nc4ccccc4n3C(C)C)CC2)n1 | inconclusive: 14% |
| CNCC(=O)NC(C)(C)c1cccc2ccccc12 | inactive |
| CCn1nc(C(C)C)cc1C(=O)NCC1CCCN(S(C)(=O)=O)C1 (stereo unspecified) | inconclusive: 25% |
| O=C1c2ccccc2C(Nc2ccc(F)c(Cl)c2)N1Cc1ccccc1 (stereo unspecified) | inactive |
| O=C(Nc1ccc2c(c1)OCCO2)C1CCN(S(=O)(=O)c2ccc(Cl)cc2)CC1 | inconclusive: 13% |
| CCC(=O)N1CCc2cc(Br)cc(S(=O)(=O)N3CCC(C)CC3)c21 | inactive |
| CN(CCCc1cnn(C)c1)C(=O)c1scc2c1CCCC2 | inconclusive: 10% |
| COc1ccccc1/C=C/C1=NC(=C\c2ccccc2)/C(=O)O1 | active: 38% |
| Cc1nc(C(=O)N2CCc3c(c(C(=O)NCc4ccccc4)nn3C)C2)cs1 | inactive |
| CCNc1ccnc(N2Cc3cnc(-c4ccccc4)nc3C2)n1 | inactive |
| CCOCCCn1c(=N)c(C(=O)NC2CCCC2)cc2c(=O)n3ccccc3nc21 | inactive |
| CCN1CCCC1CNC(=O)C(NC(=O)C1CCC(C)CC1)C(C)C (stereo unspecified) | inconclusive: 10% |
| Brc1ccccc1-c1nnc(-c2cccnc2)o1 | inconclusive: 13% |
| COc1ccc(-n2c(SCC(=O)N3CCCCC3)nc3c([nH]c4ccccc43)c2=O)cc1 | inconclusive: 13% |
| O=C(c1ccc(Cl)cc1)N1N=C(C2CCCCC2)CC1(O)C(F)(F)F (stereo unspecified) | inactive |
| NC1=NC(=O)/C(=C\c2ccc(-c3ccc(Cl)c([N+](=O)[O-])c3)o2)S1 | active: 40% |
| O=C(Nc1nc2ccccc2s1)c1ccc(Br)o1 | inconclusive: 13% |
| COc1ccc(S(=O)(=O)N2CCOCC2)c2cccnc12 | inconclusive: 10% |
| O=C(CC(n1cncn1)C(Cl)(Cl)Cl)c1ccc([N+](=O)[O-])cc1 (stereo unspecified) | inconclusive: 11% |
| Nc1cc(NC(=O)C23CC4CC(CC(C4)C2)C3)cc(Oc2ccccc2)c1 | inactive |
| CN(C)c1ccc(C=C2C(=O)OC(C)(C(C)(C)C)OC2=O)cc1Br (stereo unspecified) | inconclusive: 12% |
| Cc1ccc(S(=O)(=O)NC(C)C(=O)O)cc1 (stereo unspecified) | inconclusive: 10% |
| Cc1c(C(=O)NCc2cccnc2Oc2ccccc2F)cnc2ccnn12 | inconclusive: 14% |

| SMILES | inhibition |
| --- | --- |
| Nc1ccc(N)c2c1C(=O)c1c(N)ccc(N)c1C2=O | active: 94% |
| Cc1c(C(=O)Nc2c(C)n(C)n(-c3ccccc3)c2=O)oc2ccccc12 | inconclusive: 21% |
| CC(C)C1CN(C(=O)CCn2cnnn2)CCC(=O)N1CC1CC1 (stereo unspecified) | inconclusive: 15% |
| NCCNCCOc1ccc(OCc2ccccc2)cc1 | inconclusive: 13% |
| Cc1ccc(CN2CCSc3ccc(C(=O)NCCCN4CCCC4)cc32)cc1 | inconclusive: 10% |
| Cc1cccc(C)c1NC(=O)c1cnc2scc(C)n2c1=O | inactive |
| COc1ccccc1NS(=O)(=O)/C=C/c1ccccc1 | inconclusive: 13% |
| C=CCC(=O)N(CCSCC)C1CCCCC1 | inconclusive: 14% |
| COc1ccccc1C(CCNCc1ccco1)c1ccc(OC(C)C)cc1 (stereo unspecified) | inactive |
| CCc1cc2c(=O)c(-c3ccc4c(c3)OCO4)coc2cc1OC(C)C | inactive |
| c1ccc(N2CCN(c3ccccc3)C2c2ccco2)cc1 | inactive |
| CCOC(=O)c1cnc2ccccc2c1Nc1cccc(C(C)=O)c1 | inconclusive: 10% |
| COc1ccc(C(=O)NCCNc2c(Cl)cccc2[N+](=O)[O-])cc1Cl | inconclusive: 23% |
| CC1=C(C)CS(=O)N(S(=O)(=O)c2cccc([N+](=O)[O-])c2)C1 (stereo unspecified) | inconclusive: 11% |
| CCC1CN(C(=O)c2cc3ncccn3n2)CCC(=O)N1Cc1ccccc1 (stereo unspecified) | inactive |
| Cc1nc2ccccc2c2oc(C(=O)NC3CCCCC3)cc12 | inactive |
| Cc1cc([N+](=O)[O-])nn1CCCC(=O)Nc1sc2c(c1C#N)CCCCC2 | inconclusive: 17% |
| COc1nccnc1NS(=O)(=O)c1ccc(NC(=O)c2cc3ccccc3oc2=O)cc1 | inconclusive: 13% |
| CCCC(=O)NCc1nc2ccccc2n1CCC | inconclusive: 14% |
| CC(C)c1ccc(N(C(=O)c2ccc(C(C)(C)C)cc2)C2C=CS(=O)(=O)C2)cc1 (stereo unspecified) | inconclusive: 10% |
| O=C(CN1CCCC1=O)N1CCC(CO)(Cc2ccccc2)CC1 | inactive |
| COc1ccc(N2C(=O)C(N3C(=O)c4ccccc4C3=O)C2c2ccc(N(C)C)cc2)cc1Cl (stereo unspecified) | inconclusive: 26% |
| CN(C)c1ccc(/C=C2/C(=O)c3ccc(C(=O)O)cc3C2=O)cc1 | inactive |
| COc1ccc(NC(=O)c2cc3cc4ccc(Cl)cc4nc3o2)cc1Cl | inconclusive: 21% |

From PubChem BioAssay AID1259354 (Paczesny and Yang Labs, IUPUI and University of Michigan, 2018)
